This is an account of results in PMC3607558.

By UniProt entry, the sequences of proteins in these tests, tags left out.
UniProt P29067: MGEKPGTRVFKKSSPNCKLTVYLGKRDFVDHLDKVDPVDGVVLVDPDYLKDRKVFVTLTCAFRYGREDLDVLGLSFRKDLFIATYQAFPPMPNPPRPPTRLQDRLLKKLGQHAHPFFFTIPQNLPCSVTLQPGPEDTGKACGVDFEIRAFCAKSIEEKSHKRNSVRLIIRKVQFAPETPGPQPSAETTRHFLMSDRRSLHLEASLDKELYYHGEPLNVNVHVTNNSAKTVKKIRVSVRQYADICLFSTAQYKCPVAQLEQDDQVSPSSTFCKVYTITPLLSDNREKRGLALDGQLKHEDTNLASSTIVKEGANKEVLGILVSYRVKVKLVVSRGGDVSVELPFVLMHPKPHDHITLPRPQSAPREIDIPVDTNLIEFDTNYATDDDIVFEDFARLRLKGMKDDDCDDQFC

In the test the target is β-arrestin 2 (rat (endogenous in primary alveolar macrophages)) (UniProt P29067). Nature of the test: co-IP; anti-β-arrestin 2 (5 µg/ml) on Dynabeads; 100 µg lysate of rat AM (RIPA: 50 mM Tris-HCl, 150 mM NaCl, 1% NP-40, pH 8.0) overnight at 4°C; washed three times with PBS; Western analysis on TLR4; cells untreated or treated with LPS (100 ng/ml), SP-A (40 µg/ml) or both.

Results are given in words; binding and its absence hold for the method and conditions named. Binding seen in cells or lysates may run through a third protein. Some binding calls cover weakened binding; strength is not graded here.

B1: TLR4 (receptor, UniProt Q9QX05 26-835)
chain: NPCIEVLPNITYQCMDQNLSKIPHDIPYSTKNLDLSFNPLKILRSYSFTNFSQLQWLDLSRCEIETIEDKAWHGLNQLSTLVLTGNPIKSFSPGSFSGLTNLENLVAVETKMTSLEGFHIGQLISLKKLNVAHNLIHSFKLPEYFSNLTNLEHVDLSYNYIQTISVKDLQFLRENPQVNLSLDLSLNPIDSIQAQAFQGIRLHELTLRSNFNSSNVLKMCLQNMTGLHVHRLILGEFKNERNLESFDRSVMEGLCNVSIDEFRLTYINHFSDDIYNLNCLANISAMSFTGVHIKHIADVPRHFKWQSLSIIRCHLKPFPKLSLPFLKSWTLTTNREDISFGQLALPSLRYLDLSRNAMSFRGCCSYSDFGTNNLKYLDLSFNGVILMSANFMGLEELEYLDFQHSTLKKVTEFSVFLSLEKLLYLDISYTNTKIDFDGIFLGLISLNTLKMAGNSFKDNTLSNVFTNTTNLTFLDLSKCQLEQISRGVFDTLYRLQLLNMSHNNLLFLDPSHYKQLYSLRTLDCSFNRIETSKGILQHFPKSLAVFNLTNNSVACICEYQNFLQWVKDQKMFLVNVEQMKCASPIDMKASLVLDFTNSTCYIYKTIISVSVVSVLVVATVAFLIYHFYFHLILIAGCKKYSRGESIYDAFVIYSSQNEDWVRNELVKNLEEGVPRFQLCLHYRDFIPGVAIAANIIQEGFHKSRKVIVVVSRHFIQSRWCIFEYEIAQTWQFLSSRSGIIFIVLEKVEKSLLRQQVELYRLLSRNTYLEWEDNALGRHIFWRRLKKALLDGKALNPDETSEEEQEATTLT
For B1, the binding entry was “binds”.
